Experimental data from publication doi:10.1101/2023.04.14.536856.
Read-outs that look alike come from different tables or passages of the source. Results are given in words; binding and its absence hold for the method and conditions named. Binding seen in cells or lysates may run through a third protein. Some entries that bind do so weakly or less than the wild type. Tags and fused reporters may be left off the sequences shown.

By UniProt entry, the sequences of proteins in these tests, tags left out.
UniProt Q96524: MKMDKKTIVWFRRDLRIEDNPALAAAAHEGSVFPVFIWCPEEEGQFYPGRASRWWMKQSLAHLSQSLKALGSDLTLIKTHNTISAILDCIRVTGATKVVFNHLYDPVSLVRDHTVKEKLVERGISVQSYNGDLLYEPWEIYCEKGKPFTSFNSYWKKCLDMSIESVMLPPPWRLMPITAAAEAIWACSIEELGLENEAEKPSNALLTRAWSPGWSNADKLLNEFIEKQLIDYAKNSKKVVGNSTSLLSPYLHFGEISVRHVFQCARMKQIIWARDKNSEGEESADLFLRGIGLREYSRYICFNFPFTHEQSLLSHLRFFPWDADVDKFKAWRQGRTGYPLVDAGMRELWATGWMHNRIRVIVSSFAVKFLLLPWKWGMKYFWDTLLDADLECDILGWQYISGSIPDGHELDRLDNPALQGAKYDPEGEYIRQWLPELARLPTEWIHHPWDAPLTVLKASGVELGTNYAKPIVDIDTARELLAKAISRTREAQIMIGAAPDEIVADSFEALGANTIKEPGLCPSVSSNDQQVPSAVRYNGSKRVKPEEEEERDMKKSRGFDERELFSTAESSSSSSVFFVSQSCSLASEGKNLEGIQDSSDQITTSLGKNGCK

Tests used:
GFP-NF-YC5 (Arabidopsis) [1] = target: T1, GFP-NF-YC5 (Arabidopsis) (UniProt Q9FGP6); assay: co-IP
T1 sequence: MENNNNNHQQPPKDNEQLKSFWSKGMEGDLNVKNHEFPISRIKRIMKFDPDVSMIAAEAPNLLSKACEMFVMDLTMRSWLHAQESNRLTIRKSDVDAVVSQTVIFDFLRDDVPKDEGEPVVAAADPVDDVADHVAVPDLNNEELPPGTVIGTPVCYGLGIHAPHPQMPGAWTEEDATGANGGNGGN

GFP-NF-YC7 (Arabidopsis) [2] = target: T2, GFP-NF-YC7 (Arabidopsis) (UniProt Q9FGP8); assay: co-IP
T2 sequence: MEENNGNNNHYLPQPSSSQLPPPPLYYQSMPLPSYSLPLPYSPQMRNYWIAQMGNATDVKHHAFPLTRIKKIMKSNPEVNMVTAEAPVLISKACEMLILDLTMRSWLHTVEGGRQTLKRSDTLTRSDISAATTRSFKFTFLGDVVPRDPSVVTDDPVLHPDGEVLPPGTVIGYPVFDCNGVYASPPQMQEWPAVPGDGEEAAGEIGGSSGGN

GFP-NF-YC8 (Arabidopsis) [3] = target: T3, GFP-NF-YC8 (Arabidopsis) (UniProt Q4PSE2); assay: co-IP
T3 sequence: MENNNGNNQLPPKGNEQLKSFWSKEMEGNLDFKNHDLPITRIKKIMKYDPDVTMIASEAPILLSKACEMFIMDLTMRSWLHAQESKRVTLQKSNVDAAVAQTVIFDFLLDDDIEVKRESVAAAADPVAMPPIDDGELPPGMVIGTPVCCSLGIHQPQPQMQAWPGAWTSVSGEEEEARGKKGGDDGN

[4] = target: T4, FGFP-NF-YC8 (Arabidopsis) (UniProt Q4PSE2); assay: co-IP
T4 sequence: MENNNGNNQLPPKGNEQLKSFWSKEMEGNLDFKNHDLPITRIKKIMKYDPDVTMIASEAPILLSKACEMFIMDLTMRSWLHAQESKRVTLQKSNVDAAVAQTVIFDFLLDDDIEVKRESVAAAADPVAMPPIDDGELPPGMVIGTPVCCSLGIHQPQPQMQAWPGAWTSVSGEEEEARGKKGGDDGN

[5] = target: T5, FGFP-NF-YC5 (Arabidopsis) (UniProt Q9FGP6); assay: co-IP
T5 sequence: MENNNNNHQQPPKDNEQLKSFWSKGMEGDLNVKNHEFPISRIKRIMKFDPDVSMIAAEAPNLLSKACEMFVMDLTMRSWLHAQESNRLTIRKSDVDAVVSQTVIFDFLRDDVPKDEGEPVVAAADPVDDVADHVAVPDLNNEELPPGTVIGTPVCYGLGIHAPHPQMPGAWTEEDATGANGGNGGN

[6] = target: T6, FGFP-NF-YC7 (Arabidopsis) (UniProt Q9FGP8); assay: co-IP
T6 sequence: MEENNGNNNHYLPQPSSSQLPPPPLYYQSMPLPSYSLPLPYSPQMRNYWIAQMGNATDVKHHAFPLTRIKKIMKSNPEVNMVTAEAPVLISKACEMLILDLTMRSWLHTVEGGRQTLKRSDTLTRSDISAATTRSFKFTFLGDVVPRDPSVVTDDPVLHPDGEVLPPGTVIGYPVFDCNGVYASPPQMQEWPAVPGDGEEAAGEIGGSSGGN

[7] = target: T7, NF-YC5-nLUC (Arabidopsis) (UniProt Q9FGP6); assay: split reporter
T7 sequence: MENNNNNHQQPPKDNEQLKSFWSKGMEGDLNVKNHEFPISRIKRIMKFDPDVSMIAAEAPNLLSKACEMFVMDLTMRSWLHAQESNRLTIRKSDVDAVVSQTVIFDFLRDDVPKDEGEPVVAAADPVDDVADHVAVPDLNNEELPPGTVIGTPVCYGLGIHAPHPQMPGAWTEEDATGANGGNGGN

[8] = target: T8, NF-YC7-nLUC (Arabidopsis) (UniProt Q9FGP8); assay: split reporter
T8 sequence: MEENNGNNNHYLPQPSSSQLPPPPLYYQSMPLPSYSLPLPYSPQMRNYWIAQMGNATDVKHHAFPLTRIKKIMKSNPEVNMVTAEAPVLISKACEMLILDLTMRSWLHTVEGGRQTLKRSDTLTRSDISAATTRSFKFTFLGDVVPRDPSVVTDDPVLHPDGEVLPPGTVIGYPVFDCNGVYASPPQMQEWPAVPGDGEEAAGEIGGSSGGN

[9] = target: T9, NF-YC8-nLUC (Arabidopsis) (UniProt Q4PSE2); assay: split reporter
T9 sequence: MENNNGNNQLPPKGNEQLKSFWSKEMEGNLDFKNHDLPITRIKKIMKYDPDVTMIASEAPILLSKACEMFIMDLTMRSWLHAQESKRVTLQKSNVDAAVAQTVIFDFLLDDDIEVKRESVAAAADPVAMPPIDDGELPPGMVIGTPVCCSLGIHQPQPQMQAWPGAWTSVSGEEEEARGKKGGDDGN

GFP-NF-YC5 (Arabidopsis) [10] = target: T1, GFP-NF-YC5 (Arabidopsis); assay: co-IP; remark: listed apart in the source
GFP-NF-YC7 (Arabidopsis) [11] = target: T2, GFP-NF-YC7 (Arabidopsis); assay: co-IP; remark: listed apart in the source
GFP-NF-YC8 (Arabidopsis) [12] = target: T3, GFP-NF-YC8 (Arabidopsis); assay: co-IP; remark: listed apart in the source

Measured: binding

Myc-CRY2 (expressed in HEK293T cells) (from UniProt Q96524 1-612)
binds: GFP-NF-YC5 (Arabidopsis) [1] | GFP-NF-YC7 (Arabidopsis) [2] | GFP-NF-YC8 (Arabidopsis) [3]

Myc-CRY2 (overexpressed in Arabidopsis) (from UniProt Q96524 1-612)
binds: [4] | [5] | [6]

B1: cLUC-PIF5 (protein, UniProt Q84LH8 1-444)
chain: MEQVFADWNFEDNFHMSTNKRSIRPEDELVELLWRDGQVVLQSQARREPSVQVQTHKQETLRKPNNIFLDNQETVQKPNYAALDDQETVSWIQYPPDDVIDPFESEFSSHFFSSIDHLGGPEKPRTIEETVKHEAQAMAPPKFRSSVITVGPSHCGSNQSTNIHQATTLPVSMSDRSKNVEERLDTSSGGSSGCSYGRNNKETVSGTSVTIDRKRKHVMDADQESVSQSDIGLTSTDDQTMGNKSSQRSGSTRRSRAAEVHNLSERRRRDRINERMKALQELIPHCSRTDKASILDEAIDYLKSLQMQLQVMWMGSGMAAAAAAAASPMMFPGVQSSPYINQMAMQSQMQLSQFPVMNRSAPQNHPGLVCQNPVQLQLQAQNQILSEQLARYMGGIPQMPPAGNQMQTVQQQPADMLGFGSPAGPQSQLSAPATTDSLHMGKIG
binds: [7] | [8] | [9]

B2: Flag-PIF5 (expressed in HEK293T cells) (protein, UniProt Q84LH8 1-444)
chain: MEQVFADWNFEDNFHMSTNKRSIRPEDELVELLWRDGQVVLQSQARREPSVQVQTHKQETLRKPNNIFLDNQETVQKPNYAALDDQETVSWIQYPPDDVIDPFESEFSSHFFSSIDHLGGPEKPRTIEETVKHEAQAMAPPKFRSSVITVGPSHCGSNQSTNIHQATTLPVSMSDRSKNVEERLDTSSGGSSGCSYGRNNKETVSGTSVTIDRKRKHVMDADQESVSQSDIGLTSTDDQTMGNKSSQRSGSTRRSRAAEVHNLSERRRRDRINERMKALQELIPHCSRTDKASILDEAIDYLKSLQMQLQVMWMGSGMAAAAAAAASPMMFPGVQSSPYINQMAMQSQMQLSQFPVMNRSAPQNHPGLVCQNPVQLQLQAQNQILSEQLARYMGGIPQMPPAGNQMQTVQQQPADMLGFGSPAGPQSQLSAPATTDSLHMGKIG
binds: GFP-NF-YC5 (Arabidopsis) [10] | GFP-NF-YC7 (Arabidopsis) [11] | GFP-NF-YC8 (Arabidopsis) [12]
